Some of the results follow. Single values are uncertain here, since repeats match poorly.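 Researchers measured free-swimming zebrafish larvae's O-bend response probability to dark flashes (naive: first five; training: remaining flashes of four 60-flash blocks; test: later 60-flash block) and OMR turning toward alternating leftward/rightward LED motion. Six treated larvae were compared to sixty 0.1% DMSO controls, with |SSMD|≥2 marking a hit.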
Legend:
Settings in all cases: 10 µM; pre-incubation: 30-90 min
[1] = test system: Danio rerio larvae (5 dpf, TLF); test: OMR-Perf (SSMD vs DMSO vehicle); higher = higher than vehicle (e.g. higher dark-flash O-bend response probability, or better optomotor performance)
[2] = test system: Danio rerio larvae (5 dpf, TLF); test: Prob-Test (SSMD vs DMSO vehicle); higher = higher than vehicle (e.g. higher dark-flash O-bend response probability, or better optomotor performance)
[3] = test system: Danio rerio larvae (5 dpf, TLF); test: Prob-Naive (SSMD vs DMSO vehicle); higher = higher than vehicle (e.g. higher dark-flash O-bend response probability, or better optomotor performance)
[4] = test system: Danio rerio larvae (5 dpf, TLF); test: Prob-Train (SSMD vs DMSO vehicle); higher = higher than vehicle (e.g. higher dark-flash O-bend response probability, or better optomotor performance)

Row | Structure (SMILES) | OMR-Perf [1] | Prob-Test [2] | Prob-Naive [3] | Prob-Train [4]
1 | CN(C)CCC(c1ccc(Br)cc1)c1ccccn1.O=C(O)/C=C\C(=O)O (centres undefined) [Brompheniramine hydrogen maleate] | 0.727 | 0.253 | -0.0832 | -0.264
2 | CS(=O)(=O)c1ccc([C@@H](O)[C@@H](CF)NC(=O)C(Cl)Cl)cc1 [Florfenicol] | 0.237 | -0.38 | 0.105 | -0.11
3 | CN(C)C/C=C/C(=O)Nc1cc2c(Nc3ccc(F)c(Cl)c3)ncnc2cc1O[C@H]1CCOC1 [Afatinib (BIBW2992)] | 0.274 | -0.181 | 0.0778 | -0.371
4 | CCc1cc2c(cc1N1CCC(N3CCOCC3)CC1)C(C)(C)c1[nH]c3cc(C#N)ccc3c1C2=O | 0.407 | -0.51 | 0.538 | 0.221
5 | CO[C@H]1/C=C\C=C(\C)C(=O)NC2=CC(=O)C(NCCN(C)C)=C(C[C@@H](C)C[C@H](OC)[C@H](O)[C@@H](C)/C=C(\C)[C@@H]1OC(N)=O)C2=O.Cl [17-DMAG (Alvespimycin) HCl] | -0.0861 | 0.118 | 0.135 | 0.712
6 | COc1cc2c(cc1OC)CC(=O)N(CCCN(C)C[C@@H]1Cc3cc(OC)c(OC)cc31)CC2.Cl [Ivabradine HCl] | 0.336 | 0.0848 | -0.336 | 0.105
7 | Cc1cnc(NC(=O)C2=C(O)c3ccccc3S(=O)(=O)N2C)s1 [Meloxicam] | -0.13 | -0.941 | 0.184 | -1.75
8 | CC1=C(CC(=O)O)c2cc(F)ccc2/C1=C\c1ccc(S(C)=O)cc1 (centres undefined) [Sulindac] | 0.401 | 0.0757 | -0.0225 | 0.0865
9 | Br.CCCC(CCC)C(=O)OC1C[C@H]2CC[C@@H](C1)[N+]2(C)C (some centres undefined) [Anisotropine Methylbromide] | -0.0711 | 0.208 | 0.0912 | 0.39
10 | COc1ccc2[nH]c(S(=O)Cc3ncc(C)c(OC)c3C)nc2c1 (centres undefined) [Omeprazole] | -0.039 | -0.383 | -0.224 | 0.0475
11 | Cc1ccc(Nc2nccc(N(C)c3ccc4c(C)n(C)nc4c3)n2)cc1S(N)(=O)=O.Cl | 0.81 | -0.0165 | -0.288 | -0.532
12 | CCCCCCCCc1ccc(CCC(N)(CO)CO)cc1.Cl [Fingolimod (FTY720) HCl] | -1.08 | -0.486 | -0.363 | -0.336
13 | CC(C)(C)OC(=O)N[C@H]1CCCCC/C=C\[C@@H]2C[C@@]2(C(=O)NS(=O)(=O)C2CC2)NC(=O)[C@@H]2C[C@@H](OC(=O)N3Cc4cccc(F)c4C3)CN2C1=O [Danoprevir (ITMN-191)] | -0.82 | 0.414 | -0.094 | 0.212
14 | CCN1CCN(C(=O)N[C@@H](C(=O)N[C@@H]2C(=O)N3C(C(=O)O)=C(CSc4nnnn4C)CS[C@H]23)c2ccc(O)cc2)C(=O)C1=O [Cefoperazone] | -0.465 | 0.428 | 0.493 | 0.0909
15 | Cl.N=c1ccn2c(n1)O[C@@H]1[C@@H](O)[C@@H](CO)O[C@H]12 [Cyclocytidine HCl] | -0.704 | 0.45 | -0.0681 | 0.162
16 | CN/C(=C\[N+](=O)[O-])NCCSCc1ccc(CN(C)C)o1.Cl [Ranitidine] | -0.0502 | -0.198 | 0.0131 | -0.142
17 | O=C(O)CSCC(=O)NC1CCSC1=O (centres undefined) [Erdosteine] | 0.529 | -0.682 | 0.0939 | -0.726
18 | NC(=O)[C@@H](CCC(F)(F)F)N(Cc1ccc(-c2ncon2)cc1F)S(=O)(=O)c1ccc(Cl)cc1 | -1.46 | -1.74 | -2.04 | -1.79
19 | N[C@H](C(=O)O)[C@H](O)c1ccc(O)c(O)c1 [Droxidopa (L-DOPS)] | 0.289 | -0.118 | 0.549 | 0.00119
20 | Cc1cc(Nc2ncc(Cl)c(Nc3ccccc3S(=O)(=O)C(C)C)n2)c(OC(C)C)cc1C1CCNCC1 | -0.411 | -0.891 | -0.496 | -0.824
21 | O=C(CCc1ccc(O)cc1)c1c(O)cc(O)cc1O [Phloretin] | -0.43 | -0.389 | -0.206 | -0.411
22 | CN1CCN(CCCN2c3ccccc3Sc3ccc(C(F)(F)F)cc32)CC1.Cl.Cl [Trifluoperazine 2HCl] | -0.718 | -2.09 | -0.829 | -1.17
23 | Cn1cc(-c2ccc3ncc(Cc4ccc5ncccc5c4)n3n2)cn1 | -0.427 | 0.463 | -0.274 | 0.395
24 | COCCCN1CCC(NC(=O)c2cc(Cl)c(N)c3c2OCC3)CC1 [Prucalopride] | -0.163 | -0.0711 | 0.6 | 0.196
25 | CC(=O)O[C@H]1CC[C@@]2(C)C(=CC[C@H]3[C@H]2CC[C@]2(C)C(c4cccnc4)=CC[C@@H]32)C1 [Abiraterone Acetate] | -0.0948 | -1.51 | -0.172 | -1.72
26 | CC(C)=CCC[C@](C)(O[C@@H]1O[C@H](CO[C@@H]2OC[C@@H](O)[C@H](O)[C@@H]2O)[C@@H](O)[C@H](O)[C@@H]1O)[C@@H]1CC[C@]2(C)[C@@H]1[C@H](O)C[C@H]1[C@@]3(C)CC[C@H](O[C@@H]4O[C@H](CO)[C@@H](O)[C@H](O)[C@@H]4O)C(C)(C)[C@@H]3CC[C@]12C [Gynostemma Extract] | -0.0198 | 0.0058 | 0.375 | -0.067

Four entries from above, as tab-separated lines:
Row	Structure (SMILES)	OMR-Perf [1]	Prob-Test [2]	Prob-Naive [3]	Prob-Train [4]
5	CO[C@H]1/C=C\C=C(\C)C(=O)NC2=CC(=O)C(NCCN(C)C)=C(C[C@@H](C)C[C@H](OC)[C@H](O)[C@@H](C)/C=C(\C)[C@@H]1OC(N)=O)C2=O.Cl [17-DMAG (Alvespimycin) HCl]	-0.0861	0.118	0.135	0.712
11	Cc1ccc(Nc2nccc(N(C)c3ccc4c(C)n(C)nc4c3)n2)cc1S(N)(=O)=O.Cl	0.81	-0.0165	-0.288	-0.532
16	CN/C(=C\[N+](=O)[O-])NCCSCc1ccc(CN(C)C)o1.Cl [Ranitidine]	-0.0502	-0.198	0.0131	-0.142
20	Cc1cc(Nc2ncc(Cl)c(Nc3ccccc3S(=O)(=O)C(C)C)n2)c(OC(C)C)cc1C1CCNCC1	-0.411	-0.891	-0.496	-0.824

The list continues:

Row | Structure (SMILES) | OMR-Perf [1] | Prob-Test [2] | Prob-Naive [3] | Prob-Train [4]
27 | Cc1c(O)c(=O)ccn1C [Deferiprone] | 0.297 | -0.103 | 0.153 | 0.114
28 | O=C(Nc1ccccc1)c1ccccc1O [Salicylanilide] | -0.012 | -0.45 | -0.504 | -0.36
29 | CCN1CCN(c2ccc(Nc3cc(N(C)C(=O)Nc4c(Cl)c(OC)cc(OC)c4Cl)ncn3)cc2)CC1 | -0.532 | -0.498 | -0.397 | 0.0398
30 | COC(=O)c1ccc2c(c1)NC(=O)/C2=C(\Nc1ccc(N(C)C(=O)CN2CCN(C)CC2)cc1)c1ccccc1 [Nintedanib (BIBF 1120)] | 0.203 | 0.0507 | -0.686 | -0.56
31 | CS(=O)(=O)O.O=C(Nc1cccc(Cl)c1)Nc1ncc(CCNc2ncnc3ccsc23)s1 [SNS-314 Mesylate] | -0.341 | 0.0641 | -0.432 | -0.957
32 | COc1ccc2c(c1)c(CC(=O)O)c(C)n2C(=O)c1ccc(Cl)cc1 [Indomethacin] | -0.349 | -0.674 | -0.174 | -1.33
33 | CCCCOc1cc(C(=O)NCCN(CC)CC)c2ccccc2n1.Cl [Dibucaine HCl] | -0.894 | -0.993 | 0.232 | 0.0323
34 | CC(CCc1ccc(O)cc1)NCC(O)c1ccc(O)cc1.Cl (centres undefined) [Ractopamine HCl] | -0.00375 | -0.479 | 0.433 | -0.141
35 | CN(C)CCOC(c1ccccc1)c1ccccc1.Cl [Diphenhydramine HCl] | -0.0502 | -0.0336 | 0.271 | 0.162
36 | COc1ccc2cc(CCC(C)=O)ccc2c1 [Nabumetone] | 0.249 | -0.663 | -0.521 | -1.09
37 | CCn1c(-c2nonc2N)nc2c(C#CC(C)(C)O)ncc(OC[C@H]3CCCNC3)c21 | 0.319 | -0.0845 | 0.0475 | -0.0394
38 | O=c1cc[nH]c(=O)[nH]1 [Uracil] | -0.206 | 0.513 | 0.241 | 0.379
39 | Nc1nc(=S)c2[nH]cnc2[nH]1 [Thioguanine] | 0.299 | -0.243 | 0.421 | 0.27
40 | COc1cc2c(N3CCN(C(=O)Nc4ccc(OC(C)C)cc4)CC3)ncnc2cc1OCCCN1CCCCC1 [Tandutinib (MLN518)] | 0.409 | -0.0257 | 0.35 | 0.486
41 | Cc1ccc(NC(=O)c2cccc(C(C)(C)C#N)c2)cc1Nc1ccc2ncn(C)c(=O)c2c1 | -0.783 | 0.077 | 0.289 | 0.141
42 | CCCC(CCC)C(=O)O.CCCC(CCC)C(=O)[O-].[Na+] [Divalproex Sodium] | 0.181 | 0.228 | -0.364 | -0.311
43 | CCOC(=O)c1c(CSc2ccccc2)n(C)c2cc(Br)c(O)c(CN(C)C)c12.Cl [Arbidol HCl] | -0.806 | -1.42 | 0 | -0.513
44 | CCCCOc1c(C(=O)c2c(F)cc(C)cc2F)cnc2[nH]ncc12 | 0.514 | 0.124 | -0.043 | -0.315
45 | NC(=O)OCC(COC(N)=O)c1ccccc1 [Felbamate] | -0.307 | 0.208 | -0.234 | -0.0131
46 | CC(=O)Oc1cc2c(s1)CCN(C(C(=O)C1CC1)c1ccccc1F)C2 (centres undefined) [Prasugrel] | -0.111 | -0.494 | -0.551 | -1.61
47 | CN[C@H]1[C@@H](O)[C@H]2O[C@@H]3O[C@H](C)CC(=O)[C@]3(O)O[C@@H]2[C@@H](NC)[C@H]1O.Cl.Cl [Spectinomycin HCl] | 0.204 | 0.531 | 0.402 | 0.694
48 | O=C(CCCc1ccccc1)[O][Na] [Sodium Phenylbutyrate] | 0.00818 | -0.295 | 0 | 0.114
49 | COc1ccc(S(=O)(=O)N(C(C)=O)c2ccccc2/C=C/c2cc[n+]([O-])cc2)cc1 | -0.0279 | 0.111 | -0.102 | -0.445
50 | CC(CC(=O)O)(CC(=O)O)C(=O)O.CCN(CC)CCOCCOC(=O)C(CC)(CC)c1ccccc1 [Oxeladin Citrate] | -0.142 | 0.0488 | 0.61 | 0.571
51 | O=C(c1ccc(F)cc1)C1CCN(CCn2c(=O)[nH]c3ccccc3c2=O)CC1 [Ketanserin] | -0.425 | 0.128 | 0.831 | 0.416
